Data reported in PubChem BioAssay AID1671190 (National Center for Advancing Translational Sciences (NCATS), 2021).
Several values for one entry are separate records, joined by “and”; a condition that tells them apart may be missing. Equal values may be shown once. In all, about 580,000 compounds went through this assay and about 6,100 (1.1%) were called active. The shares of active, inactive and inconclusive entries below differ from those in the screen. Calls come from the whole dose curve; as a rule, active = well fitted inhibition curve with a large enough effect; inconclusive = small, poorly fitted or top-dose-only effect, or another doubt; inactive = no such curve, though single readings can be large or run the other way. A potency beside an inconclusive call is a rough fit, not a confirmed value.

Amino acid sequences for entries named in this document (tags omitted).
UniProt P18054, whole entry, looked up: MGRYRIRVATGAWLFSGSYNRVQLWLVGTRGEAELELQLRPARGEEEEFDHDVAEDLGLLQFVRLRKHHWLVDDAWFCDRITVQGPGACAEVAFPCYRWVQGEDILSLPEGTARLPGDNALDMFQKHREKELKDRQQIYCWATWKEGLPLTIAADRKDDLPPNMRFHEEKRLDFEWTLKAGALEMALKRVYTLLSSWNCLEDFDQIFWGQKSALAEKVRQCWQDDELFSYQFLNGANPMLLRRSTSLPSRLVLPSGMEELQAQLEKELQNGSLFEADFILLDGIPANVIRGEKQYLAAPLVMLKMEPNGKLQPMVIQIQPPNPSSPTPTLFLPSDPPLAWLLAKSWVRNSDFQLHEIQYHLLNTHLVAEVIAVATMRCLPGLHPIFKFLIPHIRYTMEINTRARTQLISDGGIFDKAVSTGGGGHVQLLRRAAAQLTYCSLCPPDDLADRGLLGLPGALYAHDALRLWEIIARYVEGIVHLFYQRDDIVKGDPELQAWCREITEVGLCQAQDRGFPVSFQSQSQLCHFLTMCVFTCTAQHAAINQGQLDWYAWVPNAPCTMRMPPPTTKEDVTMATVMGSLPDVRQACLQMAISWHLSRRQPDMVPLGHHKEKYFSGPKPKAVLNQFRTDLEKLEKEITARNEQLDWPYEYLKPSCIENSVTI

Target: Polyunsaturated fatty acid lipoxygenase ALOX12 (Homo sapiens) (UniProt P18054)
Experiment: Primary qHTS assay for inhibitors of human arachidonate 12S-lipoxygenase (ALOX12): Round 2
Settings: purified 12hLO, xylenol orange hydroperoxide absorbance; activity change, negative = inhibition: at 108 µM (top of the series) unless noted
How it was run: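 Purified human 12hLO (150 nM final) in 25 mM Hepes, 0.01% Triton X-100, pH 7.0 was preincubated 15 min at room temperature with compound. Then 40 uM arachidonic acid was added, 30 min. Hydroperoxide was read by Fe-XO absorbance ratio 573/405 nm.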
% is set by controls: 0 for no effect and ±100 for the full control effect; potency is the fitted concentration of half-maximal effect.

Row | SMILES | Potency | activity change, negative = inhibition
1 | CCc1ccc(N2C(=O)CC(N3CCN(c4ccccn4)CC3)C2=O)cc1 (stereo unspecified) | inconclusive: 126 µM [inhibitor, partial curve, poor fit] | –
2 | O=C(NNC(=S)Nc1ccccc1)c1ccccc1Br | inconclusive: 44.7 µM [inhibitor, partial curve, poor fit] | –
3 | COc1ccc(C(=O)N2CCC3(CC(C(C)C)=NO3)C2)cc1 (stereo unspecified) | inconclusive: 5.62 µM [inhibitor, full curve, poor fit] | –
4 | CC#CCN1C(=O)NC(CCc2ccccc2)(C2CCN(Cc3ccccc3-c3ccco3)CC2)C1=O (stereo unspecified) | inconclusive: 12.6 µM [inhibitor, full curve] | –
5 | CCc1cccc(NC(=O)CC2(C(=O)O)CCCCC2)c1 | inactive | –
6 | CN1CCN(C(=O)c2c(O)c3cccc4c3n(c2=O)CCC4)CC1 | inconclusive: 44.7 µM [inhibitor, partial curve, poor fit] | –
7 | CCN(CC)C(=O)c1cccc(NC(=O)C2CCN(C(=O)c3cccs3)CC2)c1 | inactive | –
8 | N#Cc1cc2cc3c(cc2nc1N1CCCCC1)OCCO3 | inconclusive: 4.47 µM [inhibitor, full curve, poor fit] | –
9 | CCCOC1CCCN(C(=O)c2cc(Cl)c(Cl)cc2C(=O)O)C1 (stereo unspecified) | inconclusive: 112 µM [inhibitor, partial curve, poor fit] | –
10 | COc1ccccc1/C=C/C=C1\Oc2c(ccc(O)c2CN(C)C)C1=O | inconclusive: 31.6 µM [inhibitor, partial curve, poor fit] | –
11 | COc1ccc(CNC(=O)C(C)c2ccc3cc(OC)ccc3c2)cc1 (stereo unspecified) | inactive | –
12 | COc1ccc(OCC(=O)Nc2ccc3nn(-c4ccc(OC)cc4)nc3c2)cc1 | inactive | –
13 | O=C(OCc1cn([C@@H]2C[C@H](c3ccccc3)N(C(=O)C3CCCCC3)C[C@H]2O)nn1)c1ccccc1 | inconclusive: 112 µM [inhibitor, partial curve, poor fit] | –
14 | Cc1cc(C2C(=O)C(C(=O)c3ccc(Cl)cc3)C(=O)CC2(C)C)on1 (stereo unspecified) | inconclusive: 39.8 µM [inhibitor, partial curve] | –
15 | O=C(C1CCN(c2ncnc3c2nc2n3CCCCC2)CC1)N1CCN(c2ccc(Cl)cc2)CC1 | inactive | –
16 | COc1cccc2sc(N(CCCN(C)C)C(=O)c3sc4ccccc4c3Cl)nc12 | inconclusive: 89.1 µM [inhibitor, partial curve, poor fit] | –
17 | CCCCc1c(O)nc2ccccn2c1=O | inactive | –
18 | CC(C)CCNC(=O)c1cnc2n1CCN(CCCc1ccccc1)CC2 | inactive | –
19 | CN1CCc2c([nH]c3ccccc23)C12CCN(C(=O)c1ccccc1)CC2 | inactive | –
20 | CCOc1ccc(C(=O)Nc2ccc(N3CCN(C)CC3)cc2)cc1 | inconclusive: 28.2 µM [inhibitor, single point] | –
21 | Cn1c(=O)n(C)c2cc(S(=O)(=O)O)ccc21 | inconclusive: 39.8 µM [inhibitor, partial curve, poor fit] | –
22 | CC(C)CCn1c(N2CCN(Cc3ccccc3F)CC2)nc2c1c(=O)[nH]c(=O)n2C | inconclusive: 126 µM [inhibitor, single point] | –

Row | SMILES | Potency | activity change, negative = inhibition
23 | COC1CN(c2ccc(C)cc2)C12CCN(C(=O)Cc1ccccc1)CC2 (stereo unspecified) | inactive | –
24 | COc1cc(C(=O)c2cc3c(cc2C)OCO3)cc(OC)c1OC | inactive | –
25 | O=C(CSC1CC(=O)N(CCc2ccccc2)C1=O)Nc1ccc(Br)cc1 (stereo unspecified) | inconclusive: 112 µM [inhibitor, partial curve, poor fit] | –
26 | Cc1c(N2C(=O)C(=O)/C(=C(/O)c3ccc(Br)cc3)C2c2cccnc2)c(=O)n(-c2ccccc2)n1C (stereo unspecified) | inconclusive: 22.4 µM [inhibitor, full curve, poor fit] | –
27 | CCC(CC)C(=O)Nc1ccccc1C(C)CC (stereo unspecified) | inactive | –
28 | O=C(Cn1c(-c2cscn2)nc2ccccc21)Nc1ccc(N2CCCC2=O)cc1 | inconclusive: 50.1 µM [inhibitor, single point] | –
29 | O=C(C[n+]1cc(Br)cc2ccccc21)c1ccccc1 | inconclusive: 14.1 µM [inhibitor, partial curve] | –
30 | O=C(CSc1ccccc1Cl)N1CCNC1=O | inactive | –
31 | CCOC(=O)CN(CC)Cc1ccco1 | inactive | –
32 | Cc1ccccc1C(=O)NC(C)c1ccc2c(c1)OCO2 (stereo unspecified) | inactive | –
33 | CC1(C(=O)NS(=O)(=O)c2ccc(F)cc2F)CCN1C(=O)c1ccc(C2CCCCC2)cc1 (stereo unspecified) | inconclusive: 0.282 µM [inhibitor, full curve, poor fit] | –
34 | COc1ccc(-c2nc3cnc(N(C)C)nc3n(Cc3cccs3)c2=O)cc1 | inconclusive: 39.8 µM [inhibitor, partial curve, poor fit] | –
35 | O=C(CNc1ccccc1)N/N=C/c1ccc2c(c1)OCO2 | inconclusive: 56.2 µM [inhibitor, partial curve, poor fit] | –
36 | Cc1ccc(CN(C)C(=O)c2cccc(S(=O)(=O)N3CCc4ccccc4C3)c2)o1 | inconclusive: 25.1 µM [inhibitor, partial curve, poor fit] | –
37 | Cc1ccc(CNC(=O)CSc2ncc3c(n2)-c2ccc(Cl)cc2N(C)S3(=O)=O)cc1 | inconclusive: 100 µM [inhibitor, single point] | –
38 | Cc1ccc(C(=O)Nc2sc3c(c2C(=O)N2CCN(C)CC2)CCCCC3)cc1 | inconclusive: 79.4 µM [inhibitor, single point] | –
39 | Cc1ccc(S[C@@H](CCN2CC[C@H](O)CCC2=O)c2ccccc2)cc1 | active: 35.5 µM | –
40 | COCCc1noc([C@@H]2CN(CC(C)(C)C)C[C@H]2CO)n1 | inactive | –
41 | O=C(OCc1ccc(F)cc1Br)c1ccc(CN2CCCC2=O)cc1 | inconclusive: 44.7 µM [inhibitor, partial curve, poor fit] | –
42 | COC(=O)CSc1nnc(COc2cccc3ccc(C)nc23)n1C | inconclusive: 158 µM [inhibitor, partial curve, poor fit] | –
43 | CC(C)CC(c1nnnn1Cc1cccs1)N1CCN(c2nc3ccccc3s2)CC1 (stereo unspecified) | inactive | –
44 | c1ccc(-c2nc(-c3cnccn3)no2)c(OC2CNC2)c1 | inconclusive: 39.8 µM [inhibitor, partial curve, poor fit] | –

Row | SMILES | Potency | activity change, negative = inhibition
45 | CCOC(=O)C1=C[C@]2(CC)CCCN3CCc4c(n1c1ccccc41)[C@@H]32 | inactive and inconclusive: 9.68 µM [inhibitor, partial curve, poor fit] and inconclusive: 39.8 µM [inhibitor, partial curve] | –
46 | Cc1ccccc1-c1noc(-c2ccccc2C(=O)NCc2ccco2)n1 | inconclusive: 79.4 µM [inhibitor, partial curve, poor fit] | –
47 | CN1CCN(C(CNS(=O)(=O)c2ccc(Br)cc2)c2ccc3c(c2)OCO3)CC1 (stereo unspecified) | inconclusive: 31.6 µM [inhibitor, partial curve, poor fit] | –
48 | CCC1(CC)Cc2ccccc2C(=O)N1 | inactive | –
49 | Cc1ccc2cc(CCC(=O)NCCCN(C)C)c(=O)[nH]c2c1 | inconclusive: 14.1 µM [inhibitor, partial curve, poor fit] | –
50 | Cc1c(P(=S)(c2ccccc2)c2ccccc2)[n+]2ccccc2n1C/C=C/c1ccccc1 | inconclusive: 44.7 µM [inhibitor, partial curve, poor fit] | –
51 | O=C(O)c1ccc2c(=O)n3c(nc2c1)/C(=C/c1ccc(C(F)(F)F)cc1)CC3 | inconclusive: 100 µM [inhibitor, single point] | –
52 | CSc1ccc(-c2nc(CSCC(=O)NCc3ccc4c(c3)OCO4)c(C)o2)cc1 | inconclusive: 44.7 µM [inhibitor, partial curve, poor fit] | –
53 | Cc1ccc(C)c(N(C)C(=O)Cc2c(C(=O)O)[nH]c3ccc(Cl)cc23)c1 | inconclusive: 100 µM [inhibitor, partial curve, poor fit] | –
54 | COC(=O)[C@@H](NC(=O)N1CCN(C(=O)C2COc3ccccc3O2)CC1)C(C)C (stereo partly specified) | – | inconclusive: -32.1% [inhibitor]
55 | COc1ccccc1-c1ccc(SCC(=O)NC2CCCC2)nn1 | inconclusive: 50.1 µM [inhibitor, partial curve, poor fit] | –
56 | CC(C)(C)NC(=O)N1CCC2(CCC(=O)N(CC3CC3)CC2)CC1 | inactive | –
57 | COc1ccc(CN2CCN(c3ccccn3)CC2)cc1OCc1ccccc1 | inconclusive: 4.47 µM [inhibitor, full curve] | –
58 | Cc1[nH]n(-c2ncc(-c3ccccc3)s2)c(=O)c1C(c1ccc(Br)cc1)C(C#N)C#N (stereo unspecified) | active: 25.1 µM | –
59 | COCc1cn(C[C@H]2C[C@@H](NCc3cccc4c3OCO4)[C@H](O)[C@@H]2O)nn1 | inactive | –
60 | COc1ccc2c(c1)C(C)=CC(C)(C)N2C(=O)Nc1ccccc1 | inconclusive: 31.6 µM [inhibitor, partial curve] | –
61 | COC[C@H]1NC(=O)CC[C@H]1C(=O)Nc1cc(C)ccc1OC | inactive | –
62 | CCN1CCN(c2cc(C)c3cc(NC(=S)NCCCN4CCc5ccccc5C4)ccc3n2)CC1 | inactive | –
63 | COc1ccc(OC(=O)N2CCC(Oc3ccc4c(cnn4CCC(=O)O)c3)CC2)cc1 | inconclusive: 141 µM [inhibitor, partial curve, poor fit] | –
64 | CCOC(=O)C[C@@H]1C[C@@H](C(C)C)[C@H](CNC(=O)c2ccc(C#N)cc2)C=C1C | inconclusive: 126 µM [inhibitor, partial curve, poor fit] | –
65 | OC(CN1CCNCC1)Cn1c2ccccc2c2ccccc21 (stereo unspecified) | inconclusive: 44.7 µM [inhibitor, partial curve, poor fit] | –
66 | Cc1nn(C)cc1S(=O)(=O)N1CCN(c2ccc(F)cc2)CC1 | inconclusive: 39.8 µM [inhibitor, partial curve, poor fit] | –
